Counter-ions that a name gives are not always drawn. This is one part of the list. Single values are uncertain here, since repeats match poorly.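 The human kidney-derived cells carry a stably integrated construct of eight TEAD-binding elements driving luciferase, read by luminescence in a drug-repurposing library screen. A compound counts as a hit when its signal is more than five robust Z scores above the plate mean.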
System: HEK293A TEAD-LUC reporter
Assay: TEAD-luciferase reporter activity (YAP activation), robust Z score vs plate; higher = stronger YAP/TEAD activation
Settings: 24 h

SMILES	TEAD-luciferase reporter activity (compound concentration: 200 nM)	TEAD-luciferase reporter activity (compound concentration: 2 uM)	TEAD-luciferase reporter activity (compound concentration: 10 uM)
CCCn1cnc(CC(CCCN)C(=O)O)c1 (stereo not given)	inactive: -1.5	inactive: 0.115	inactive: -0.176
CCOC(=O)c1cc(Br)c(N)c(CN(CC)CC)c1	inactive: 0.301	inactive: -0.259	inactive: 3.47
COc1ccc2nc(COc3ccc(CC4SC(=O)NC4=O)cc3)n(C)c2c1 (stereo not given)	inactive: 0.0158	inactive: -1.11	inactive: 0.655
OC[C@@H]1O[C@@H](O[C@H]2O[C@H](CO)[C@@H](O)[C@H](O)[C@H]2O)[C@@H](O)[C@H](O)[C@H]1O [Trehalose]	inactive: -1.02	inactive: -0.818	inactive: -0.136
Cc1nccn1-c1sc(Nc2cnccn2)nc1-c1cccc(C#N)c1	inactive: 0.0339	inactive: 0.906	inactive: -1.37
COC(=O)c1c(C)nc(C)c(C(=O)OC)c1-c1ccccc1[N+](=O)[O-]	inactive: -1.64	inactive: -0.846	inactive: 1.55
CC(=O)NC(Cc1ccc(C#N)cc1)C(=O)NC(C(=O)O)C1CCCCC1 (stereo not given)	inactive: -0.618	inactive: -0.153	inactive: -1.7
CO[C@H]1C[C@@H]2CC[C@@H](C)[C@@](O)(O2)C(=O)C(=O)N2CCCC[C@H]2C(=O)O[C@H]([C@H](C)C[C@@H]2CC[C@@H](OCCO)[C@H](OC)C2)CC(=O)[C@H](C)/C=C(\C)[C@@H](O)[C@@H](OC)C(=O)[C@H](C)C[C@H](C)/C=C/C=C/C=C/1C [Everolimus]	inactive: -0.336	inactive: -1.02	inactive: -0.377
CN1CCN(NS(=O)(=O)c2ccc(F)cc2)CC1	inactive: -0.895	inactive: -0.647	inactive: 0.703
CCN(CC)CCNC(=O)c1cc(Cl)c(N)cc1OCCS(C)=O (stereo not given)	inactive: -1.02	inactive: -0.0582	inactive: -0.882
CCOC(=O)/C=C/[C@H](C[C@@H]1CCNC1=O)NC(=O)[C@@H](CC(=O)[C@@H](NC(=O)c1cc(C)on1)C(C)C)Cc1ccc(F)cc1 [AG-7088_:_ rupinavir]	–	–	inactive: 0.733
CCOC(=O)/C=C/[C@H](C[C@@H]1CCNC1=O)NC(=O)[C@@H](CC(=O)[C@@H](NC(=O)c1cc(C)on1)C(C)C)Cc1ccc(F)cc1	–	inactive: 0.559	–
COC(=O)N[C@H](C(=O)N[C@@H](Cc1ccccc1)[C@@H](O)CN(Cc1ccc(-c2ccccn2)cc1)NC(=O)[C@@H](NC(=O)OC)C(C)(C)C)C(C)(C)C [Atazanavir sulfate]	inactive: -0.481	–	inactive: 1.49
COC(=O)N[C@H](C(=O)N[C@@H](Cc1ccccc1)[C@@H](O)CN(Cc1ccc(-c2ccccn2)cc1)NC(=O)[C@@H](NC(=O)OC)C(C)(C)C)C(C)(C)C [atazanavir sulfate]	–	inactive: 2.33	–
C[C@H](NC(=O)CCC(F)(F)F)C(=O)N[C@@H]1C(=O)N(CCO)c2ncccc2-c2ccccc21	inactive: -0.721	inactive: -1.77	inactive: -2.45
CC[C@H]1C2=NC(=C\c3c(C(C)=O)c(C)c4[n]3[Mg][n]3c5c(c(C)/c3=C/2)C(=O)[C@H](C(=O)OC)C=5C2=N/C(=C\4)[C@@H](C)[C@@H]2CCC(=O)OC/C=C(\C)CCCC(C)CCCC(C)CCCC(C)C)/[C@@H]1C (stereo not given in full)	inactive: -0.939	inactive: 1.05	inactive: 1.11
C=Cc1c(C)c2[n]3c1=CC1=NC(=Cc4c(C)c(C(=O)[O-])c([n]4[Cu]3)C(CC(=O)[O-])=C3N=C(C=2)C(C)C3CCC(=O)[O-])C(CC)=C1C (stereo not given)	inactive: -1.28	inactive: 1.57	inactive: 0.733
COc1cc2c(cc1O)CC[C@@H]1[C@@H]2CC[C@]2(C)[C@@H](O)CC[C@@H]12 [2-Methoxyestradiol]	inactive: -0.389	inactive: -0.921	inactive: -0.518
CCCCCCCCC#CCC#CCC#CCCCC(=O)N1CCN(CCO)CC1	inactive: -0.543	inactive: -1.18	inactive: 0.504
O=C1CCCN1CC(O)CN1CCN(c2ccccc2)CC1 (stereo not given)	inactive: 0.776	inactive: -1.61	inactive: -0.0912
Cc1nc2[nH]c(=O)sc2cc1-c1ccncc1	inactive: 0.16	inactive: -0.597	inactive: -1.55
O=C(NCCCN1CCOCC1)c1ccc(Cl)cc1 [Eprobemide]	inactive: -1.19	inactive: 2.13	inactive: 1.59
CCOC(=O)C1=CCCC[C@H]1S(=O)(=O)Nc1ccc(F)cc1Cl [Resatorvid]	inactive: 0.714	inactive: -0.0449	inactive: 0.672
N[C@H]1CC[C@H](Nc2nc(NCc3cccc(I)c3)c3ncn(C4CCCC4)c3n2)CC1	inactive: -0.676	inactive: 4.46	inactive: 2.99
COc1cc(Nc2ncc(F)c(Nc3ccc4c(n3)NC(=O)C(C)(C)O4)n2)cc(OC)c1OC	inactive: 2.53	–	inactive: -3.29
COc1cc(Nc2ncc(F)c(Nc3ccc4c(n3)NC(=O)C(C)(C)O4)n2)cc(OC)c1OC [Tamatinib besilate]	–	inactive: -2.69	–

Fetched one by one from the entries so far:
SMILES	TEAD-luciferase reporter activity (compound concentration: 200 nM)	TEAD-luciferase reporter activity (compound concentration: 2 uM)	TEAD-luciferase reporter activity (compound concentration: 10 uM)
COc1cc(Nc2ncc(F)c(Nc3ccc4c(n3)NC(=O)C(C)(C)O4)n2)cc(OC)c1OC	inactive: 2.53	–	inactive: -3.29
N[C@H]1CC[C@H](Nc2nc(NCc3cccc(I)c3)c3ncn(C4CCCC4)c3n2)CC1	inactive: -0.676	inactive: 4.46	inactive: 2.99
CO[C@H]1C[C@@H]2CC[C@@H](C)[C@@](O)(O2)C(=O)C(=O)N2CCCC[C@H]2C(=O)O[C@H]([C@H](C)C[C@@H]2CC[C@@H](OCCO)[C@H](OC)C2)CC(=O)[C@H](C)/C=C(\C)[C@@H](O)[C@@H](OC)C(=O)[C@H](C)C[C@H](C)/C=C/C=C/C=C/1C [Everolimus]	inactive: -0.336	inactive: -1.02	inactive: -0.377

Later entries:

SMILES	TEAD-luciferase reporter activity (compound concentration: 200 nM)	TEAD-luciferase reporter activity (compound concentration: 2 uM)	TEAD-luciferase reporter activity (compound concentration: 10 uM)
Cn1nc(-c2cnc3ccccc3c2)cc1C(=O)NCCN1CCOCC1	inactive: -0.832	inactive: -0.325	inactive: 1.05
CCOC(=O)C(=O)Nc1cccc(OC)c1C(N)=O	inactive: -0.331	inactive: -0.415	inactive: -0.355
O=C1c2ccccc2C(=O)C1c1ccc(Br)cc1	inactive: -0.716	inactive: 0.977	inactive: 3.02
COc1cc(OC)c(-c2cc3ccccc3[nH]2)cc1/C=C/C(=O)c1ccc(C(=O)O)cc1 [VCAM-1 antagonists]	–	inactive: 1.25	–
COc1cc(OC)c(-c2cc3ccccc3[nH]2)cc1/C=C/C(=O)c1ccc(C(=O)O)cc1 [VCAM-1 antagonists, AtheroGen]	inactive: 4.17	–	inactive: 0.474
CC1(C)Oc2ccc(C#N)cc2[C@H](N(Cc2ncc[nH]2)c2ccc(Cl)cc2)[C@H]1O	inactive: -0.263	inactive: 2.06	inactive: -0.195
CN(CC(O)C(O)C(O)C(O)CO)C(=S)[S-] (stereo not given)	inactive: -0.553	inactive: -0.807	inactive: 1.11
Cc1cc(-c2nnc(N)nc2-c2ccc(F)cc2)cc(Cl)n1	active: 7.89	inactive: -1.22	inactive: 0.766
C#CCNC(=O)[C@H]1N(C(=O)[C@@H](O)[C@H](Cc2ccccc2)NC(=O)c2cccc(O)c2C)CSC1(C)C	inactive: -0.116	inactive: -0.4	inactive: 0.461
Cc1nc2cccc(C(F)(F)F)c2c(=O)n1-c1ccc(OC2CCN(C3CCC3)CC2)cc1	inactive: -1.74	inactive: 0.528	inactive: 0.0504
CNC[C@@H]1CCn2cc(c3ccccc32)C2=C(C(=O)NC2=O)c2cn(c3ccccc23)CCO1	inactive: 0.458	inactive: 0.632	inactive: -0.672
Cc1oc(-c2ccccc2)nc1COc1ccc(CO/N=C(\CCC(=O)O)c2ccccc2)cc1	inactive: -0.431	inactive: -0.631	inactive: 2.82
Cc1cn([C@H]2O[C@@H](CO)[C@H](O)[C@H]2F)c(=O)[nH]c1=O	inactive: -0.297	inactive: 0.986	inactive: 2.19
CCCNC(=O)N1N=C(c2ccc(N)cc2)c2cc3c(cc2C1C)OCO3 (stereo not given)	inactive: -0.953	inactive: -1.21	inactive: -0.479
CCOc1nc2cccc(C(=O)OCc3oc(=O)oc3C)c2n1Cc1ccc(-c2ccccc2-c2nc(=O)o[nH]2)cc1 [Azilsartan medoxomil potassium]	inactive: -0.704	inactive: 0.501	inactive: 2
Cc1ccn(-c2ccc(C(=O)N3Cc4cccnc4Nc4ccccc43)c(C(F)(F)F)c2)n1	inactive: 2.39	inactive: -1.1	inactive: -1.37
CCN1C(=O)c2ccccc2C1C(CCN1CCC(c2ccccc2S(C)=O)CC1)c1ccc(Cl)c(Cl)c1 (stereo not given)	inactive: -1.18	inactive: -0.309	inactive: 0.348
Cc1ccc(C(=O)N2CCC(C(=O)N3CCC(N4CCCC4=O)CC3)CC2)cc1	inactive: -0.185	–	inactive: -0.297
CCC(C)(C)/N=C(/NC#N)N[C@@H]1c2cc(C#N)ccc2OC(C)(C)[C@H]1O	inactive: -0.475	inactive: -1.1	inactive: 1.59
COC(=O)N[C@H](C(=O)N1CCC[C@H]1c1ncc(-c2cc(F)c3c(c2)O[C@@H](c2cnc(C4CC4)s2)n2c-3cc3cc(-c4cnc([C@@H]5CCCN5C(=O)[C@@H](NC(=O)OC)C(C)C)[nH]4)ccc32)[nH]1)C(C)C	inactive: 0.255	inactive: 0.413	inactive: -0.0788
CCOc1cc2nc(N3CCOCC3)nc(N3CCC(n4c(=O)c5cc(C)ccc5n(C)c4=O)CC3)c2cc1OCC	inactive: -0.168	inactive: -1.01	inactive: 2.98
O=C1N[C@H](C(=O)O)CS1 [Procysteine]	–	inactive: 0.694	–
O=C1N[C@H](C(=O)O)CS1 [4-Thiazolidinecarboxylic acid, 2-oxo-, (R)-]	inactive: -0.613	–	inactive: -0.223
CC(C)(C)C(=O)NC1CCN(c2nc3ncccc3o2)C1 (stereo not given)	inactive: -1.17	–	inactive: -0.659
Cc1[nH]cnc1CN1CCc2c(c3ccccc3n2C)C1=O [Alosetron HCl]	inactive: -1.14	–	inactive: -1.08
Cc1[nH]cnc1CN1CCc2c(c3ccccc3n2C)C1=O [alosetron]	–	inactive: -0.458	–

Reference: the supplement of paper PMC10735217
